Some compounds share one wording; it may come from a single statement.
Columns and labels:
[1] = Coloring power evaluation of liquid compositions bar-coated on opacity measuring sheet; settings: pigment quantity per unit area (5 cm×5 cm) 6.5 mg; for Coloring power C*: calculated from a* and b*
[2] = Color tone evaluation of liquid compositions bar-coated on opacity measuring sheet; settings: for Color tone Rank: by C* when L* was 50; for Color tone L* / Color tone a* / Color tone b*: liquid composition (compound in styrene), bar coating No. 10, air-dried overnight; for Color tone C* (chroma): value of C* found when L* was 50, calculated from a* and b*

Compound	Coloring power Rank [1]	Coloring power C* [1]	Color tone Rank [2]	Color tone L* [2]	Color tone a* [2]	Color tone b* [2]	Color tone C* (chroma) [2]
Cn1c(=O)cc2c3c(c(Nc4ccccc4)ccc31)C(=O)c1ccccc1-2 [(1), reference compound]	C (The C* is less than 70 (the coloring power is low))	55.3	C (The C* is less than 65 (the color tone is poor))	49.6	40.9	−18.2	44.8
Cc1ccc(Nc2ccc3c4c(cc(=O)n3C)-c3ccccc3C(=O)c24)cc1 [(2), reference compound]	C (The C* is less than 70 (the coloring power is low))	44.1	C (The C* is less than 65 (the color tone is poor))	50.7	32.8	−13.9	35.6
Cc1cccc(Nc2ccc3c4c(cc(=O)n3C)-c3ccccc3C(=O)c24)c1 [(3), reference compound]	C (The C* is less than 70 (the coloring power is low))	45.3	C (The C* is less than 65 (the color tone is poor))	48.2	24.5	−25.2	35.1
Cc1ccc(Nc2ccc3c4c(cc(=O)n3-c3ccc(C)cc3)-c3ccccc3C(=O)c24)cc1 [(4), reference compound]	C (The C* is less than 70 (the coloring power is low))	43.7	C (The C* is less than 65 (the color tone is poor))	50.2	40.7	−9.7	41.9
O=C1c2ccccc2-c2cc(=O)n(C3CCCCC3)c3ccc(NC4CCCCC4)c1c23 [(5), reference compound]	C (The C* is less than 70 (the coloring power is low))	66.0	A (The C* is 85 or more (the color tone is very good))	52.2	81.3	48.2	94.5
CCCCC(CC)CNc1ccc2c3c(cc(=O)n2C)-c2ccccc2C(=O)c13 (centres unmarked) [Compound (1)]	A (The C* is 80 or more (the coloring power is very high))	83.6	B (The C* is 65 or more to less than 85 (the color tone is good))	49.7	81.9	12.5	82.8
CCCCC(CC)CNc1ccc2c3c(cc(=O)n2CC(CC)CCCC)-c2ccccc2C(=O)c13 (centres unmarked) [Compound (5)]	A (The C* is 80 or more (the coloring power is very high))	85.4	A (The C* is 85 or more (the color tone is very good))	49.9	84.0	28.5	88.7
CCCCOCCCNc1ccc2c3c(cc(=O)n2CCCC)-c2ccccc2C(=O)c13 [Compound (6)]	A (The C* is 80 or more (the coloring power is very high))	84.8	A (The C* is 85 or more (the color tone is very good))	50.1	82.0	37.7	90.3
CCCCC(CC)COCCCNc1ccc2c3c(cc(=O)n2CCCC)-c2ccccc2C(=O)c13 (centres unmarked) [Compound (7)]	A (The C* is 80 or more (the coloring power is very high))	83.2	A (The C* is 85 or more (the color tone is very good))	50.1	82.2	36.2	89.8
CCCCCCCCCCCCNc1ccc2c3c(cc(=O)n2CCCC)-c2ccccc2C(=O)c13 [Compound (8)]	A (The C* is 80 or more (the coloring power is very high))	84.0	A (The C* is 85 or more (the color tone is very good))	50.1	85.3	10.9	86.0
CCCCn1c(=O)cc2c3c(c(NCCC4=CCCCC4)ccc31)C(=O)c1ccccc1-2 [Compound (9)]	A (The C* is 80 or more (the coloring power is very high))	84.1	A (The C* is 85 or more (the color tone is very good))	49.9	80.3	31.8	86.4

Source: patent US20140225048A1, “LIQUID COMPOSITION, AND COLOR-FILTER RESIST COMPOSITION, THERMAL-TRANSFER RECORDING SHEET AND INK WHICH MAKE USE OF THE LIQUID COMPOSITION” (CANON KABUSHIKI KAISHA, priority 2011, published 2014)
